Substitutions are numbered along the chain they refer to. Names and notes keep the numbering of the source. Results are given in words; binding and its absence hold for the method and conditions named. In cells and extracts the contact can be indirect. A result given as binding can be weak or reduced; the word gives no strength.

Our source for the binding values is paper PMC6925586.

For one test, the target named is T1, NLRP7 (UniProt Q8WX94).
T1 sequence: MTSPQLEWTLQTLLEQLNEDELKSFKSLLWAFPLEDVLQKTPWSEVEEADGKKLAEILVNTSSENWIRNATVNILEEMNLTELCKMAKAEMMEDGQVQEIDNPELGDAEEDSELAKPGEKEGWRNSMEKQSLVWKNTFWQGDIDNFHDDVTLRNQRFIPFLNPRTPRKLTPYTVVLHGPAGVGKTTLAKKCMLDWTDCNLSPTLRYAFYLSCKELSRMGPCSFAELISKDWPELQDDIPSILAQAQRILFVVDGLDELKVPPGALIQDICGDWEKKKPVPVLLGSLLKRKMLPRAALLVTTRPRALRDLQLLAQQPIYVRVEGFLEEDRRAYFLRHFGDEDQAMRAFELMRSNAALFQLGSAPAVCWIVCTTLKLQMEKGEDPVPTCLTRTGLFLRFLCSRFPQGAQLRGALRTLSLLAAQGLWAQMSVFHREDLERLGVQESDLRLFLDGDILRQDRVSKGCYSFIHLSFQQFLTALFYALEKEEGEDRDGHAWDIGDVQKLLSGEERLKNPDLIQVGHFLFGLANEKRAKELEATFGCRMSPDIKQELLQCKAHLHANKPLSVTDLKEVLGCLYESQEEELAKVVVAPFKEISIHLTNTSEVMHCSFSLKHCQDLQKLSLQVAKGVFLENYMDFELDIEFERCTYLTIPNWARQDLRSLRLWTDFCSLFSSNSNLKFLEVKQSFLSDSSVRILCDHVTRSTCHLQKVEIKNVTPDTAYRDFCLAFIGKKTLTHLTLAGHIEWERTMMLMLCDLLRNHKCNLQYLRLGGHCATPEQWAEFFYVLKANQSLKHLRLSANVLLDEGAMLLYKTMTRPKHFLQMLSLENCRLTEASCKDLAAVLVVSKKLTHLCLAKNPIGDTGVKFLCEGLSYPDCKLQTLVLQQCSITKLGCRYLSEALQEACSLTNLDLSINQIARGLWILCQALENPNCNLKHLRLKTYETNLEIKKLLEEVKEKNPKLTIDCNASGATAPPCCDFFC
Nature of the test: co-IP; Hec1a endometrial cancer cells.

The target in test [1] is PDGFR (RenCa cells) (mouse (endogenous in RenCa)). Briefly: co-IP; RenCa mouse RCC cells transduced with lentiviral TG2 constructs.
Test [2] concerns the target platelet-derived growth factor beta-receptor (mouse (endogenous in Swiss 3T3)). Briefly: co-IP; Swiss 3T3 cells induced to overexpress TG2, treated with the NO donor SNAP for 48 hours; with SNAP less TG2 complex with ITGβ-1 and SDC-4, more with PDGFR-β.

In the case of Rab5, the binding result with NLRP7 was “binds”.

B1: TG2-W241A (enzyme, UniProt P21980 1-687)
chain: MAEELVLERCDLELETNGRDHHTADLCREKLVVRRGQPFWLTLHFEGRNYEASVDSLTFSVVTGPAPSQEAGTKARFPLRDAVEEGDWTATVVDQQDCTLSLQLTTPANAPIGLYRLSLEASTGYQGSSFVLGHFILLFNAWCPADAVYLDSEEERQEYVLTQQGFIYQGSAKFIKNIPWNFGQFEDGILDICLILLDVNPKFLKNAGRDCSRRSSPVYVGRVVSGMVNCNDDQGVLLGRADNNYGDGVSPMSWIGSVDILRRWKNHGCQRVKYGQCWVFAAVACTVLRCLGIPTRVVTNYNSAHDQNSNLLIEYFRNEFGEIQGDKSEMIWNFHCWVESWMTRPDLQPGYEGWQALDPTPQEKSEGTYCCGPVPVRAIKEGDLSTKYDAPFVFAEVNADVVDWIQQDDGSVHKSINRSLIVGLKISTKSVGRDEREDITHTYKYPEGSSEEREAFTRANHLNKLAEKEETGMAMRIRVGQSMNMGSDFDVFAHITNNTAEEYVCRLLLCARTVSYNGILGPECGTKYLLNLNLEPFSEKSVPLCILYEKYRDCLTESNLIKVRALLVEPVINSYLLAERDLYLENPEIKIRILGEPKQKRKLVAEVSLQNPLPVALEGCTFTVEGAGLTEEQKTVEIPDPVEAGEEVKVRMDLLPLHMGLHKLVVNFESDKLKAVKGFRNVIIGPA
B1: the binding result in test [1] is recorded as “binds”.

B2: wild-type tissue transglutaminase (TG2), lentivirally expressed in RenCa cells (enzyme, UniProt P21980 1-687)
chain: B1 chain with A241W
In the case of B2, the binding result in test [1] was “binds”.

B3: tissue transglutaminase (TG2), overexpressed in induced Swiss 3T3 cells (enzyme, UniProt P21980 1-687)
chain: B1 chain with A241W
As for B3, in test [2], the binding entry is “binds”.
